From PubChem BioAssay AID1487 (National Center for Advancing Translational Sciences (NCATS), 2009) come the findings set out here.

Some of the results follow. These are further read-outs of the screen, such as a control signal, another cell line or another target. No call is given for them. Compounds called inactive in the main read-out are mostly missing here. Potencies come from curve fits of mixed quality, noted in brackets.

A short description of this assay: qHTS Assay for Modulators of Lamin A Splicing. The settings on record: HeLa LMNA splicing GFP/RFP minigene ratio, 48 h. A digest of the protocol: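 Read-out is the ratio of GFP to DsRed2 object intensity, acquired by 488 nm laser-scanning cytometry on HeLa lamin A-EGFP minigene reporter cells. Compound incubation 48 hrs at 37 °C in Opti-MEM with 2% FBS; DMSO 0.5% final.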
For orientation: Quantitative high-throughput screening tests each substance at several concentrations.

Setting [1] is: measured here: GFP splicing reporter channel.
[2] abbreviates: measured here: RFP viability control channel.

For orientation: AC50 means the midpoint of the concentration-response curve, whichever way the signal moves.

Regarding `O=C(C1CC(=O)N(c2ccc3c(c2)OCCO3)C1)N1CCN(c2ccccc2)CC1` (configuration not stated), the AC50 under setting [1] was 0.0178 µM [rising, full curve, poor fit].

For the molecule `COc1cccc(/C=C/C(=O)c2cccc([N+](=O)[O-])c2)c1OC`, the AC50 was 11.2 µM [falling, single point] under setting [1] and 11.2 µM [falling, single point] under setting [2].

On to `CCCCCCCCCC(=O)N/N=C(\C)c1cccnc1`, for which the AC50 under setting [2] was 10 µM [rising, single point].

Turning to `Fc1ccc(Nc2ccnc(Nc3ccc(F)cc3)n2)cc1`, the AC50 runs as follows: under setting [1], 15.8 µM [rising, single point]; under setting [2], 22.4 µM [rising, single point].

In the case of `CCc1nn(C(C)C(=O)NCCN2CCN(c3cccc(C)c3C)CC2)c(=O)c2cc3occc3n12` (configuration not stated), under setting [2], the AC50 was 14.1 µM [rising, single point].

In the case of `COc1cccc(/C=N/c2sc(Cc3ccccc3)c(C)c2C(N)=O)c1O`, under setting [2], the AC50 is 35.5 µM [rising, single point].

For the molecule `O=C(CC12CC3CC(CC(C3)C1)C2)NC(=S)Nc1ccc(CN2CCOCC2)cc1`, the AC50 is 35.5 µM [rising, single point] under setting [1] and 31.6 µM [rising, single point] under setting [2].

With `O=C(NC(=S)Nc1nc2ccccc2s1)c1cccs1`, under setting [2], the AC50 was 0.00891 µM [rising, full curve, poor fit].

As for `Cn1cc(CC(=O)N2CCN(c3ccc(Cl)cc3)CC2)c2ccccc21`, the AC50 under setting [2] was 35.5 µM [rising, single point].

For `CCc1ccccc1NC(=O)/C(C#N)=C/c1ccc(Sc2ccccc2)o1`, under setting [1], the half-maximal activity concentration (AC50) is 20 µM [rising, partial curve, poor fit].

As to `O=C(NCc1ccc(Cl)cc1)c1ccc(CSCc2cccc(Cl)c2)o1`, the AC50 was 10 µM [rising, partial curve] under setting [1] and 20 µM [rising, single point] under setting [2].

As to `Fc1ccc(C2CC(c3cccs3)=NN2c2ccccc2)cc1` (configuration not stated), the AC50 under setting [2] is 7.94 µM [rising, partial curve, poor fit].

In the case of `Cc1ccc(-c2nc(-c3ccc(Cl)cc3)sc2CC(=O)O)c(C)c1`, the AC50 under setting [1] was 7.08 µM [rising, full curve, poor fit].

Regarding `COCCNC(=O)C(=O)N/N=C/c1cccs1`, under setting [2], the AC50 was 11.2 µM [falling, partial curve, poor fit].

As to `CC(C)Cn1c(N)c(C(=O)COC(=O)c2ccccc2F)c(=O)n(C)c1=O`, the AC50 under setting [2] was 4.47 µM [rising, full curve, poor fit].

Take `O=C(/C=C/c1ccco1)Nc1ccc(Oc2ccc(Cl)cc2)cc1`: the concentration at half-maximal activity (AC50) is, setting by setting: under setting [1], 3.98 µM [falling, single point]; under setting [2], 0.0316 µM [falling, single point].

Turning to `COc1ccccc1CNc1cc(-c2ccccc2C)ncn1`, the AC50 reads like this: under setting [1], 6.31 µM [falling, partial curve]; under setting [2], 8.91 µM [falling, partial curve, poor fit].

`COc1ccc(NC(=O)c2ccc3ccccc3c2)cc1NS(=O)(=O)c1ccc(F)cc1`: the AC50 under setting [2] is 14.1 µM [rising, single point].

In the case of `CC(=O)N1CCN(c2ccccc2NC(=O)c2ccc(C#N)cc2F)CC1`, under setting [2], the AC50 is 0.158 µM [rising, full curve, poor fit].

Regarding `Cc1oc2cc(O)cc(O)c2c(=O)c1-c1ccc2c(c1)OCCCO2`, the AC50 under setting [2] is 31.6 µM [rising, single point].

As for `Cc1ccc(NC(=O)C(c2ccc(Cl)cc2)N2CCCCC2)cc1` (configuration not stated), the AC50 under setting [1] is 12.6 µM [falling, single point].

For `CCOc1ccc(C(=O)N[C@H](C(=O)Nc2cccc(S(=O)(=O)N3CCCCC3)c2)C(C)C)cc1`, under setting [1], the AC50 is 11.2 µM [falling, partial curve].

Consider `COc1cccc(Nc2ncc3nc(C)c(=O)n(CCc4ccccc4)c3n2)c1`, for which the AC50 under setting [2] is 35.5 µM [falling, single point].

Turning to `COc1ccc(NS(=O)(=O)c2ccc(-n3nnc4ccccc43)c([N+](=O)[O-])c2)cc1`, the AC50 is 35.5 µM [rising, single point] under setting [1] and 25.1 µM [rising, single point] under setting [2].

In the case of `Fc1cccc2sc(Nc3nnc(-c4ccco4)o3)nc12`, the AC50 under setting [2] is 7.08 µM [rising, partial curve].

For `CCCCCCCCCCCC(=O)OCC(O)CO` (configuration not stated), the concentration at half-maximal activity (AC50) under setting [2] was 17.8 µM [falling, single point].

Turning to `COc1cc(C(=O)Nc2ccc(O)cc2C(=O)O)ccc1OC(C)=O`, the AC50 under setting [1] was 0.794 µM [falling, single point].

`Clc1ccccc1Cc1noc(CN2CCCCC2CCc2ccccn2)n1` (configuration not stated): the AC50 was 10 µM [falling, partial curve] under setting [1] and 10 µM [falling, partial curve, poor fit] under setting [2].

For `Cc1cc(C=O)c(C)n1-c1ccc(N2CCOCC2)cc1`, the AC50 under setting [2] is 20 µM [rising, single point].

Turning to `CC(C)(C)CC(C)(C)c1ccc(O)c(CN2CCN(CCC#N)CC2)c1`, under setting [2], the AC50 was 31.6 µM [rising, single point].

`Cc1ccc(-n2c(C)cc(/C=N/NC(=O)c3ccncc3)c2C)cc1`: under setting [2], the AC50 was 1 µM [rising, partial curve, poor fit].

On to `CC(C(=O)O)c1cccc(C(=O)c2ccccc2)c1` (configuration not stated), for which, under setting [2], the AC50 was 0.316 µM [falling, full curve, poor fit].

With `CCC(Oc1ccccc1)C(=O)Nc1ccc(S(=O)(=O)Nc2cnc3ccccc3n2)cc1` (configuration not stated), the AC50 under setting [2] is 12.6 µM [rising, single point].

For the molecule `Nc1ncc(Br)cc1N=Cc1ccccc1`, the AC50 under setting [1] was 0.00562 µM [rising, full curve, poor fit].

In the case of `O=c1[nH]c2ccc(NCc3ccc(-c4cccc(Cl)c4)o3)cc2[nH]1`, the AC50 under setting [1] was 12.6 µM [rising, single point].

Take `CCOc1ccccc1CNC(=O)C1CCN(S(=O)(=O)c2cccc3nonc23)CC1`: the AC50 under setting [1] was 8.91 µM [falling, partial curve, poor fit].

For `COc1ccc2cc(C(=O)N/N=C/c3sc4ccccc4c3O)ccc2c1`, the AC50 under setting [1] is 11.2 µM [rising, partial curve] and the AC50 under setting [2] was 12.6 µM [rising, partial curve].

Regarding `O=C(Nc1ccc2c(c1)CCC2)c1cc2ccccc2o1`, the AC50 under setting [2] is 35.5 µM [rising, single point].
